# PMC5607100
# Protein sequences, listed by entry. Tags and fused reporters are not part of them.
# UniProt P53173: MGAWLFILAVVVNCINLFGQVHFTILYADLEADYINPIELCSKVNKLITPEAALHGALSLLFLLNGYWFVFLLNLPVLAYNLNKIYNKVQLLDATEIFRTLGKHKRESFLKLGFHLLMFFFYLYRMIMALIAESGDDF
# UniProt P05030: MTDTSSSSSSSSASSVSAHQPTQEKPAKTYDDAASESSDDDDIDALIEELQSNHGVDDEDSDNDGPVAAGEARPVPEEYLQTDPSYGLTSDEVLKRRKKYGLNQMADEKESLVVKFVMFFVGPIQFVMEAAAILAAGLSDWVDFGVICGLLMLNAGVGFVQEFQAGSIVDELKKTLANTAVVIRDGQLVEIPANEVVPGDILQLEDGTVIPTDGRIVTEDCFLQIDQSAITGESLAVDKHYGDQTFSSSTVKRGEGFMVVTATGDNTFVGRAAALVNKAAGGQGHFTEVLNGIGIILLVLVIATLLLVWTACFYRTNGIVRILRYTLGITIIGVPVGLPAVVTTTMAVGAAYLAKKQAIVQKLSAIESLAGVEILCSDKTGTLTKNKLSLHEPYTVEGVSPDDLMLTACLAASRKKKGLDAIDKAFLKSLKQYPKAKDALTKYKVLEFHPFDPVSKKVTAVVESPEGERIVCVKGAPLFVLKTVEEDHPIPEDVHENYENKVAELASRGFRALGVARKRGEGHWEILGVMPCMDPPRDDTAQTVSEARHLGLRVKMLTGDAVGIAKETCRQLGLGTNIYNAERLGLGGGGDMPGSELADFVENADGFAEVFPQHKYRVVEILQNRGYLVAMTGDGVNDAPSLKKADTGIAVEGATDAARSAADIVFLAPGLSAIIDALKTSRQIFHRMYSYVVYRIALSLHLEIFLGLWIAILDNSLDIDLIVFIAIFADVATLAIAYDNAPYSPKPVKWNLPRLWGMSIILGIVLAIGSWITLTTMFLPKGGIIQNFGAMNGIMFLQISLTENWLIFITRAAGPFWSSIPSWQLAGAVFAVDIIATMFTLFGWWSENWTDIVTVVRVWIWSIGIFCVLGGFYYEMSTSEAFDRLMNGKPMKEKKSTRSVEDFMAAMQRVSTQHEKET
# Results are given in words; binding and its absence hold for the method and conditions named. In cells and extracts the contact can be indirect. A yes stands for co-enrichment or nearness to the bait. Other partners may have been found. Tags and fused reporters may be left off the sequences shown.
# T1: HA‐tagged Ydl121c (Exp1) (S. cerevisiae) (UniProt Q07541)
# T1 sequence: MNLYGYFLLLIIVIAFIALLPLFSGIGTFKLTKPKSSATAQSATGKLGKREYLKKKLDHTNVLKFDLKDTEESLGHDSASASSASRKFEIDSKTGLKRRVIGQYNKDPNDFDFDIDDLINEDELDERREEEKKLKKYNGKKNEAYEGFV
# B1: Sec72 (protein, UniProt P39742 1-193)
# chain: MVTLEYNANSKLITASDAVVALSTETNIDQINVLTTSLIGETNPNFTPQPNEALSKMIKGLFESGMKNLQQKKLNEALKNVSLAIEMAQRKRAPWEAFAIQLPELHFMLRSKIDLCLILGKHLEALQDLDFLLGTGLIQPDVFVRKADCLLKLRQWEEARATCERGLALAPEDMKLRALLIETARNLAEYNGE
# B2: Sec63 (protein, UniProt P14906 1-663)
# chain: MPTNYEYDEASETWPSFILTGLLMVVGPMTLLQIYQIFFGANAEDGNSGKSKEFNEEVFKNLNEEYTSDEIKQFRRKFDKNSNKKSKIWSRRNIIIIVGWILVAILLQRINSNDAIKDAATKLFDPYEILGISTSASDRDIKSAYRKLSVKFHPDKLAKGLTPDEKSVMEETYVQITKAYESLTDELVRQNYLKYGHPDGPQSTSHGIALPRFLVDGSASPLLVVCYVALLGLILPYFVSRWWARTQSYTKKGIHNVTASNFVSNLVNYKPSEIVTTDLILHWLSFAHEFKQFFPDLQPTDFEKLLQDHINRRDSGKLNNAKFRIVAKCHSLLHGLLDIACGFRNLDIALGAINTFKCIVQAVPLTPNCQILQLPNVDKEHFITKTGDIHTLGKLFTLEDAKIGEVLGIKDQAKLNETLRVASHIPNLKIIKADFLVPGENQVTPSSTPYISLKVLVRSAKQPLIPTSLIPEENLTEPQDFESQRDPFAMMSKQPLVPYSFAPFFPTKRRGSWCCLVSSQKDGKILQTPIIIEKLSYKNLNDDKDFFDKRIKMDLTKHEKFDINDWEIGTIKIPLGQPAPETVGDFFFRVIVKSTDYFTTDLDITMNMKVRDSPAVEQVEVYSEEDDEYSTDDDETESDDESDASDYTDIDTDTEAEDDESPE
# B3: Snd3 (protein, UniProt P38264 1-188)
# chain: MNPQVSNIIIMLVMMQLSRRIDMEDPTIIMYIRILYCSSIGISWIIYQMARKRIVAKNDMTTMKYVEPGNAMSGEGEKLQVTTVRDYDLKEIDSAIKSIYTGMAMMGFMHLYLKYTNPLFMQSISPVKSALEHNEVKIHLFGKPATGDLKRPFKAPSLFGGMGQTGPKTDKKSIEEAERAGNAGVKAE
# B4: Sec28 (protein, UniProt P40509 1-296)
# chain: MDYFNIKQNYYTGNFVQCLQEIEKFSKVTDNTLLFYKAKTLLALGQYQSQDPTSKLGKVLDLYVQFLDTKNIEELENLLKDKQNSPYELYLLATAQAILGDLDKSLETCVEGIDNDEAEGTTELLLLAIEVALLNNNVSTASTIFDNYTNAIEDTVSGDNEMILNLAESYIKFATNKETATSNFYYYEELSQTFPTWKTQLGLLNLHLQQRNIAEAQGIVELLLSDYYSVEQKENAVLYKPTFLANQITLALMQGLDTEDLTNQLVKLDHEHAFIKHHQEIDAKFDELVRKYDTSN
# B5: Sss1 (protein, UniProt P35179 1-80)
# chain: MARASEKGEEKKQSNNQVEKLVEAPVEFVREGTQFLAKCKKPDLKEYTKIVKAVGIGFIAVGIIGYAIKLIHIPIRYVIV
# Molecular target: T1, HA‐tagged Ydl121c (Exp1) (S. cerevisiae)
# Assay: affinity purification with mass spectrometry; HA-tagged Exp1 captured on monoclonal anti-HA agarose for 1 hour from cryo-ground yeast solubilised in 1% digitonin, 50 mM Tris/Cl, 150 mM NaCl, pH 7.5; 3 washes; LC-MS/MS; intensities compared with a WT (BY4741) control
row,binding,Molecule
1,binds,Erv14 (from UniProt P53173 1-138)
2,binds,"Pma1, plasma membrane H^+‐ATPase (from UniProt P05030 1-918)"
3,binds,B1
4,binds,B2
5,binds,B3
6,binds,B4
7,binds,B5
